Test results taken from ChEMBL document CHEMBL2177055 (J Med Chem, 2012).

Experiment: in vitro
Conditions: human, Caco-2

SMILES: CN1CCN(S(=O)(=O)c2ccc(-c3cnc(N)c(C(=O)Nc4cnccc4CN4CCCC4)n3)cc2)CC1
- Papp at 2 h, 10 µM: 2.3 ×10⁻⁶ cm/s
